Results taken from the supplement of paper PMC7530171.
± gives the standard deviation. Only a part is listed here, and it is no random draw.

test system: THP-1 macrophages infected with Mycobacterium tuberculosis H37Rv; test: intracellular M.tb growth inhibition relative to DMSO (0) and 4 uM bedaquiline (100); higher = stronger inhibition of intracellular bacterial growth; conditions: 10 µM; 4 days
Experimental: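 OICR kinase inhibitor library screened in duplicate at 10 uM against THP-1 macrophages (PMA-differentiated) infected with M. tuberculosis H37Rv-pTEC27 (tdTomato RFP), 4 days at 37 C. Rows with complete host cell loss (placeholder inhibition 0, cell loss 100) were removed.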

SMILES	intracellular M.tb growth inhibition
O=C1NC(=O)c2c1c(-c1ccccc1)cc1[nH]c3ccc(O)cc3c21	121 ± 7.8%
Cc1ccccc1-n1c(Cn2nc(-c3cccc(O)c3)c3c(N)ncnc32)nc2cccc(C)c2c1=O	-70.4 ± 58%
